PubChem BioAssay AID1159578 – Peter MacCallum Cancer Centre, 2015
Assay: 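Knock-downs that alter how fast lymphatic endothelial cells migrate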 (primary screen). Cells: human lymphatic endothelial cells. Reagents: siRNA pool against human genes, 40 nM. Duration: 48 h after transfection. Detection: 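Cells stained with dye and imaged after a scratch; covered wound area and nuclei counted, duplicates averaged, migration set against mock wells and turned into a robust z-score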. Reading the numbers: migration robust z-score: higher = faster migration into the scratch; nuclei per well: higher = more cells in the well. Active means: 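Pools averaging fewer than 3300 nuclei are never called; remaining pools count as changed when migration robust z lies outside -2 to 2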. Meaning of the calls: active = migration changed; inactive = no migration change, or too few cells.
In all, the deposit lists about 18,000 reagents; below is a random part of them. In the full data, about 1,030 (5.7%) were called active. 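Inactive calls also include pools with fewer than 3300 nuclei, whose migration was not assessed.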 Raw values are not corrected between plates. Entries without a mark were called inactive. Reagents against one gene are numbered here. Not all columns of the deposit are shown.

gene knocked down,reagent,migration robust z-score,migration class with cell-count check,"nuclei per well, duplicate mean"
DAPK2 (death associated protein kinase 2),1,0.21,migration z between -2 and 2; enough cells,4774
MLXIP (MLX interacting protein),1,0.39,migration z between -2 and 2; enough cells,5974
B3GNT5,1,-0.78,migration z between -2 and 2; enough cells,6554
TOP1 (DNA topoisomerase I),1,1.19,migration z between -2 and 2; enough cells,8278
U2SURP (U2 snRNP associated SURP domain containing),1,0.15,migration z between -2 and 2; enough cells,7538
SRPRA (SRP receptor subunit alpha),1,-0.31,migration z between -2 and 2; enough cells,4772
VSNL1 (visinin like 1),1,0.49,migration z between -2 and 2; enough cells,4329
NONO (non-POU domain containing octamer binding),1,0.34,migration z between -2 and 2; enough cells,5702
GLUD1 (glutamate dehydrogenase 1),1,2.02 (active),migration z above 2; enough cells,6494
ZNF784 (zinc finger protein 784),1,0.36,migration z between -2 and 2; enough cells,5890
"SERPINA13P (serpin family A member 13, pseudogene)",1,-0.76,migration z between -2 and 2; enough cells,6364
FOXJ2 (forkhead box J2),1,-0.7,migration z between -2 and 2; enough cells,3760
YAF2 (YY1 associated factor 2),1,1.25,migration z between -2 and 2; enough cells,6858
ANKRD44 (ankyrin repeat domain 44),1,-0.27,migration z between -2 and 2; enough cells,3930
MYO1C (myosin IC),1,0.74,migration z between -2 and 2; enough cells,6262
SHE (Src homology 2 domain containing E),1,-0.5,migration z between -2 and 2; enough cells,7950
SLC26A8,1,-2.4,under 3300 nuclei; migration not judged,1902
UBE2S (ubiquitin conjugating enzyme E2 S),1,1.3,migration z between -2 and 2; enough cells,5496
KLRC4 (killer cell lectin like receptor C4),1,-0.16,migration z between -2 and 2; enough cells,5856
ZDHHC21 (zDHHC palmitoyltransferase 21),1,-1.58,migration z between -2 and 2; enough cells,6784
EPX (eosinophil peroxidase),1,-0.91,migration z between -2 and 2; enough cells,7329
LINC03040 (long independently transcribed non-coding RNA 3040),1,0.12,migration z between -2 and 2; enough cells,5674
KRTAP5-9 (keratin associated protein 5-9),1,-1.94,migration z between -2 and 2; enough cells,4864
MRPS22 (mitochondrial ribosomal protein S22),1,1.88,migration z between -2 and 2; enough cells,6577
ZNF576 (zinc finger protein 576),1,2.27 (active),migration z above 2; enough cells,5970
FMO4 (flavin containing dimethylaniline monoxygenase 4),1,0.08,migration z between -2 and 2; enough cells,6490
FBXW5 (F-box and WD repeat domain containing 5),1,-1.35,migration z between -2 and 2; enough cells,5004
"SEC24C (SEC24 homolog C, COPII component)",1,-0.09,migration z between -2 and 2; enough cells,6718
OR4K1 (olfactory receptor family 4 subfamily K member 1),1,1.03,migration z between -2 and 2; enough cells,5450
TMPRSS13 (transmembrane serine protease 13),1,0,migration z between -2 and 2; enough cells,5688
ECPAS (Ecm29 proteasome adaptor and scaffold),1,-1.52,migration z between -2 and 2; enough cells,5416
ARHGEF9 (Cdc42 guanine nucleotide exchange factor 9),1,0.86,migration z between -2 and 2; enough cells,5836
PRTG (protogenin),1,0.68,migration z between -2 and 2; enough cells,5764
MCM5 (minichromosome maintenance complex component 5),1,-1.22,migration z between -2 and 2; enough cells,4511
DENR (density regulated re-initiation and release factor),1,0.6,migration z between -2 and 2; enough cells,6062
CFAP58 (cilia and flagella associated protein 58),1,-0.4,migration z between -2 and 2; enough cells,6786
"F3 (coagulation factor III, tissue factor)",1,-0.74,migration z between -2 and 2; enough cells,6491
CLLU1 (chronic lymphocytic leukemia up-regulated 1),1,-0.83,migration z between -2 and 2; enough cells,4761
TRIM6-TRIM34 (TRIM6-TRIM34 readthrough),1,-0.02,migration z between -2 and 2; enough cells,6230
IFNG (interferon gamma),1,0.52,migration z between -2 and 2; enough cells,5676
VXN (vexin),1,1.01,migration z between -2 and 2; enough cells,6069
AOAH (acyloxyacyl hydrolase),1,1.82,migration z between -2 and 2; enough cells,6475
PTBP1 (polypyrimidine tract binding protein 1),1,-1.09,migration z between -2 and 2; enough cells,4150
USP35 (ubiquitin specific peptidase 35),1,1.17,migration z between -2 and 2; enough cells,4470
ARHGAP27 (Rho GTPase activating protein 27),1,-0.44,migration z between -2 and 2; enough cells,7410
ARHGAP27 (Rho GTPase activating protein 27),2,1.58,migration z between -2 and 2; enough cells,5222
PCNT (pericentrin),1,-0.87,migration z between -2 and 2; enough cells,3972
TMEM165 (transmembrane protein 165),1,-0.18,migration z between -2 and 2; enough cells,5961
POTEA (POTE ankyrin domain family member A (gene/pseudogene)),1,0.75,migration z between -2 and 2; enough cells,5625
SUFU (SUFU negative regulator of hedgehog signaling),1,1.33,migration z between -2 and 2; enough cells,5624
VGLL3 (vestigial like family member 3),1,-1.16,migration z between -2 and 2; enough cells,4528
SNRPD1 (small nuclear ribonucleoprotein D1 polypeptide),1,-2.59 (active),migration z below -2; enough cells,3512
ABRA (actin binding Rho activating protein),1,0.1,migration z between -2 and 2; enough cells,5528
U2AF1 (U2 small nuclear RNA auxiliary factor 1),1,1.38,migration z between -2 and 2; enough cells,7579
YARS1 (tyrosyl-tRNA synthetase 1),1,-0.36,migration z between -2 and 2; enough cells,7154
SPIDR (scaffold protein involved in DNA repair),1,-0.9,migration z between -2 and 2; enough cells,4922
DARS1 (aspartyl-tRNA synthetase 1),1,-0.18,migration z between -2 and 2; enough cells,5221
